Test [1] deals with human/mouse chimeric CDH3×EpC protein, D4 replaced by mouse sequence. Kind of test: flow cytometry on transfected CHO cells. In general terms: Flow cytometry measures light scatter and fluorescence of single cells or particles in a stream.
The target in test [2] is human/mouse chimeric CDH3×EpC protein, D4B replaced by mouse sequence. Kind of test: flow cytometry on transfected CHO cells.
In test [3] the target is human/mouse chimeric MSLN protein, epitope section E1 replaced by mouse sequence. Put plainly: flow cytometry on transfected CHO cells.
Test [4] has as its target human MSLN (mesothelin) (human) (UniProt Q13421). Put plainly: flow cytometry on transfected CHO cells, 5 µg/mL.
Test [5] concerns the target human/mouse chimeric CDH3×EpC protein, D1 replaced by mouse sequence. Kind of test: flow cytometry on transfected CHO cells, 5 µg/mL.
Test [6] addresses human/mouse chimeric CDH3×EpC protein, D1A replaced by mouse sequence. Kind of test: flow cytometry on transfected CHO cells, 5 µg/mL.
The target in test [7] is human/mouse chimeric CDH3×EpC protein, D1B replaced by mouse sequence. Kind of test: flow cytometry on transfected CHO cells, 5 µg/mL.
Test [8] deals with human/mouse chimeric CDH3×EpC protein, D1C replaced by mouse sequence. Put plainly: flow cytometry on transfected CHO cells, 5 µg/mL.
Test [9] concerns the target human/mouse chimeric CDH3×EpC protein, D2 replaced by mouse sequence. Kind of test: flow cytometry on transfected CHO cells, 5 µg/mL.
In test [10] the target is human/mouse chimeric CDH3×EpC protein, D2A replaced by mouse sequence. Kind of test: flow cytometry on transfected CHO cells, 5 µg/mL.
Test [11] deals with human/mouse chimeric CDH3×EpC protein, D2B replaced by mouse sequence. Put plainly: flow cytometry on transfected CHO cells, 5 µg/mL.
The target in test [12] is human/mouse chimeric CDH3×EpC protein, D2C replaced by mouse sequence. Kind of test: flow cytometry on transfected CHO cells, 5 µg/mL.
The target of test [13] is human/mouse chimeric CDH3×EpC protein, D3 replaced by mouse sequence. Kind of test: flow cytometry on transfected CHO cells, 5 µg/mL.
Test [14] deals with human/mouse chimeric CDH3×EpC protein, D3A replaced by mouse sequence. Kind of test: flow cytometry on transfected CHO cells, 5 µg/mL.
Test [15] has as its target human/mouse chimeric CDH3×EpC protein, D3B replaced by mouse sequence. Kind of test: flow cytometry on transfected CHO cells, 5 µg/mL.
Test [16] has as its target human/mouse chimeric CDH3×EpC protein, D3C replaced by mouse sequence. Kind of test: flow cytometry on transfected CHO cells, 5 µg/mL.
Test [17] deals with human/mouse chimeric CDH3×EpC protein, D4A replaced by mouse sequence. Kind of test: flow cytometry on transfected CHO cells, 5 µg/mL.
In test [18] the target is human/mouse chimeric CDH3×EpC protein, D4C replaced by mouse sequence. Put plainly: flow cytometry on transfected CHO cells, 5 µg/mL.
Test [19] has as its target human/mouse chimeric CDH3×EpC protein, D5 replaced by mouse sequence. Put plainly: flow cytometry on transfected CHO cells, 5 µg/mL.
Test [20] addresses human/mouse chimeric CDH3×EpC protein, D5A replaced by mouse sequence. Put plainly: flow cytometry on transfected CHO cells, 5 µg/mL.
Test [21] has as its target human/mouse chimeric CDH3×EpC protein, D5B replaced by mouse sequence. Put plainly: flow cytometry on transfected CHO cells, 5 µg/mL.
In test [22] the target is human/mouse chimeric CDH3×EpC protein, D5C replaced by mouse sequence. Kind of test: flow cytometry on transfected CHO cells, 5 µg/mL.
Test [23] has as its target human/mouse chimeric MSLN protein, epitope section E2 replaced by mouse sequence. Put plainly: flow cytometry on transfected CHO cells, 5 µg/mL.
For test [24], the target named is human/mouse chimeric MSLN protein, epitope section E3 replaced by mouse sequence. Put plainly: flow cytometry on transfected CHO cells, 5 µg/mL.
Test [25] has as its target human/mouse chimeric MSLN protein, epitope section E4 replaced by mouse sequence. Kind of test: flow cytometry on transfected CHO cells, 5 µg/mL.
The target in test [26] is human/mouse chimeric MSLN protein, epitope section E5 replaced by mouse sequence. Put plainly: flow cytometry on transfected CHO cells, 5 µg/mL.
Test [27] concerns the target human/mouse chimeric MSLN protein, epitope section E6 replaced by mouse sequence. Kind of test: flow cytometry on transfected CHO cells, 5 µg/mL.
A further test concerns the target cyno CDH3 (cyno). Put plainly: cell-based affinity, fluorescence cytometry on transfected CHO cells.
Another test deals with cyno MSLN (cyno). The test is described as above.
In test [28] the target is human MSLN (mesothelin) (human) (UniProt Q13421). Described as above.

Amino acid sequences for entries named in this document (tags omitted). A change or cut given only in a name is not applied to a line headed by its entry.
UniProt Q13421: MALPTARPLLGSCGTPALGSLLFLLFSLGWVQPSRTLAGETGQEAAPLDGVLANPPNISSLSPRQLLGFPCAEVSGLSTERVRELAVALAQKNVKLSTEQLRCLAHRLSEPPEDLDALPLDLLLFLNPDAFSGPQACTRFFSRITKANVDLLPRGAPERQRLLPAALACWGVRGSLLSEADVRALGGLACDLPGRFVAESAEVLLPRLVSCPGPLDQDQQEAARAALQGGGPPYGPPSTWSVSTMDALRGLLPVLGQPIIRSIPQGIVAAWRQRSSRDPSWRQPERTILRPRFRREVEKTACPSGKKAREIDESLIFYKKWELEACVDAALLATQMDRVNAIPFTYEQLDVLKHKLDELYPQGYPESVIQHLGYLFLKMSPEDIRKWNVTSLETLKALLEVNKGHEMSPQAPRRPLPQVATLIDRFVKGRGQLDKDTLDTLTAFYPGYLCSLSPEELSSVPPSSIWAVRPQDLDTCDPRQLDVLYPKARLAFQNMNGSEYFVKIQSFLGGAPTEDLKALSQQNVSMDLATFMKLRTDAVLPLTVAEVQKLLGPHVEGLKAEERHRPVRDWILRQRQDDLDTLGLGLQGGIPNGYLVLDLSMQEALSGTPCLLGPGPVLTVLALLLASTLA

Substitutions are numbered along the chain they refer to. In names and notes the source's numbering stands. Results are given in words; binding and its absence hold for the method and conditions named. For some of these results: A result given as binding can be weak or reduced; the word gives no strength.

Among the data in patent US20240209078A1 are binding values, retold here.

B1: CH3 15-E11 VAG CC×I2L×G4×scFc×MS 15-B12 CC×I2L clipopt ID (SEQ ID NO 434) (bispecific antibody)
chain: QVQLVQSGAEVKKPGASVKVSCKASGYTFTNYWMNWVRQAPGQCLEWMGNIAYGVAGTNYNQKFQGRVTMTVDTSSSTAYMELSRLRSDDTAVYYCATRYFYVMDYWGQGTLVTVSSGGGGQGGGGQGGGGQDIQMTQSPSSLSASVGDRVTITCRASQDISNYLNWYQQKPGKVPKLLIYYTSRLHSGVPSRFSGSGSGTDFTLTISSLQPEDVATYYCVQYAQFPLTFGCGTKVEIKSGGGGQEVQLVESGGGLVQPGGSLKLSCAASGFTFNKYAMNWVRQAPGKGMEWVARIRSKYNNYATYYADAVKDRFTISRDDSKNTLYLQMNNLKTEDTAVYYCVRAGNFGSSYISYFAYWGQGTLVTVSSGGGGQGGGGQGGGGQQTVVTQEPSLTVSPGGTVTITCGSSTGAVTSGNYPNWIQKKPGQAPRGLIGGTKFLAPGTPARFSGSLEGGKAALTLSGVQPEDEAEYYCVLYYSNRWVFGSGTKLTVLGGGGCPPCPAPELLGGPSVFLFPPKPKDTLMISRTPEVTCVVVDVSHEEPEVKFNWYVDGVEVHNAKTKPCEEQYGSTYRCVSVLTVLHQDWLNGKEYKCKVSNKALPAPIEKTISKAKGQPREPQVYTLPPSREEMTKNQVSLTCLVKGFYPSDIAVEWESNGQPENNYKTTPPVLDSDGSFFLYSKLTVDKSRWQQGNVFSCSVMHEALHNHYTQKSLSLSPGKGGGGQGGGGQGGGGQGGGGQGGGGQGGGGQCPPCPAPELLGGPSVFLFPPKPKDTLMISRTPEVTCVVVDVSHEEPEVKFNWYVDGVEVHNAKTKPCEEQYGSTYRCVSVLTVLHQDWLNGKEYKCKVSNKALPAPIEKTISKAKGQPREPQVYTLPPSREEMTKNQVSLTCLVKGFYPSDIAVEWESNGQPENNYKTTPPVLDSDGSFFLYSKLTVDKSRWQQGNVFSCSVMHEALHNHYTQKSLSLSPGKGGGGQVQLQESGPGLVKPSETLSLTCTVSGGSISSSSYFWGWIRQPPGKCLEWIGNIYYSGSSNYNPSLKSRVTISVDTSKNQFSLKLSSVTAADTAVYYCARLPRGDRDAFDIWGQGTMVTVSSGGGGQGGGGQGGGGQDIVMTQSPSSLSASVGDRVTITCRASQGISNYLAWYQQKPGKVPKLLIYAASTLQSGVPSRFSGSGSGTDFTLTISSLQPEDFATYYCQQSYSTPFTFGCGTKVEIKSGGGGQEVQLVESGGGLVQPGGSLKLSCAASGFTFNKYAMNWVRQAPGKGMEWVARIRSKYNNYATYYADAVKDRFTISRDDSKNTLYLQMNNLKTEDTAVYYCVRAGNFGSSYISYFAYWGQGTLVTVSSGGGGQGGGGQGGGGQQTVVTQEPSLTVSPGGTVTITCGSSTGAVTSGNYPNWIQKKPGQAPRGLIGGTKFLAPGTPARFSGSLEGGKAALTLSGVQPEDEAEYYCVLYYSNRWVFGSGTKLTVL
Turning to B1, the binding entry is reported as “no binding (tested: 5 µg/mL)” in test [1]; “no binding (tested: 5 µg/mL)” in test [2]; “no binding (tested: 5 µg/mL)” in [3]; “binds” in test [4]; “binds” in [5]; “binds” in test [6]. In addition, the binding entry in [7], in test [8], in test [9], in test [10], in [11] and in [12] was “binds” throughout. In addition, the binding entry in test [13], in test [14], in [15], in [16], in test [17] and in [18] was “binds” throughout. Also, the binding result in test [19], in test [20], in test [21], in test [22], in test [23] and in [24] was “binds” each time. In addition, the binding result (in test [25]; in test [26]; in test [27]; in the test with cyno CDH3 (cyno); in the test with cyno MSLN (cyno); in test [28]) was “binds” throughout.

B2: CH3 15-E11 CC×I2L×G4×scFc×G4×MS 15-B12 CC×I2L_GQ (SEQ ID NO 251) (bispecific antibody)
chain: B1 chain with A56K
B2: the binding entry in test [3] is “no binding (tested: 5 µg/mL)”; in [4], “binds”; in test [23] it was “binds”; in test [24], “binds”; in test [25], “binds”; in test [26] it was “binds”. The binding result (in [27]; with cyno CDH3 (cyno); in the test with cyno MSLN (cyno); in [28]) was “binds” each time.
